Reference: the supplement of paper PMC10849652
The list shows a part of the results.

The chains behind the UniProt entries cited, without tags or fusion partners. Where a name states a change or a piece, a line headed by the entry shows the natural chain unless it says otherwise.
UniProt Q9UHA4, whole entry, looked up: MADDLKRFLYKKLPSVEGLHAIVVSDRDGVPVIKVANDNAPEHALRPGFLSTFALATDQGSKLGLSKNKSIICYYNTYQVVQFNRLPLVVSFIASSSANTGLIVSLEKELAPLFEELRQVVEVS
UniProt Q14739: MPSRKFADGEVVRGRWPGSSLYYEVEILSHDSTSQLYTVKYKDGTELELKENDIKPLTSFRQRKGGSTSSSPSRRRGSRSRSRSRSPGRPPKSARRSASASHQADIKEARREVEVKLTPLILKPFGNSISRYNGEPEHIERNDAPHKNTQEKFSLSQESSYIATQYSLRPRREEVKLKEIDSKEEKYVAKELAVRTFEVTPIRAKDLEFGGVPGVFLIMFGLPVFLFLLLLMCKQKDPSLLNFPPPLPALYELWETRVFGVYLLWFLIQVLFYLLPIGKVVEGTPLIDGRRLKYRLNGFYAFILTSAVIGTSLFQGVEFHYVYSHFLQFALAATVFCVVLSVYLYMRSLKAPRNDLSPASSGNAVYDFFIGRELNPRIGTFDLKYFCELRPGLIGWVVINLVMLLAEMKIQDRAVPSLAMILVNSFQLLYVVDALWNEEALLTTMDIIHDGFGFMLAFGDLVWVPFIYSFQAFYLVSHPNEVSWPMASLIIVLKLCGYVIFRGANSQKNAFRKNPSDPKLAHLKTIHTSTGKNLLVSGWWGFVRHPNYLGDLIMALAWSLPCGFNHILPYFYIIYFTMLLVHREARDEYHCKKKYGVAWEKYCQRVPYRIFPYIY
UniProt Q9NT99: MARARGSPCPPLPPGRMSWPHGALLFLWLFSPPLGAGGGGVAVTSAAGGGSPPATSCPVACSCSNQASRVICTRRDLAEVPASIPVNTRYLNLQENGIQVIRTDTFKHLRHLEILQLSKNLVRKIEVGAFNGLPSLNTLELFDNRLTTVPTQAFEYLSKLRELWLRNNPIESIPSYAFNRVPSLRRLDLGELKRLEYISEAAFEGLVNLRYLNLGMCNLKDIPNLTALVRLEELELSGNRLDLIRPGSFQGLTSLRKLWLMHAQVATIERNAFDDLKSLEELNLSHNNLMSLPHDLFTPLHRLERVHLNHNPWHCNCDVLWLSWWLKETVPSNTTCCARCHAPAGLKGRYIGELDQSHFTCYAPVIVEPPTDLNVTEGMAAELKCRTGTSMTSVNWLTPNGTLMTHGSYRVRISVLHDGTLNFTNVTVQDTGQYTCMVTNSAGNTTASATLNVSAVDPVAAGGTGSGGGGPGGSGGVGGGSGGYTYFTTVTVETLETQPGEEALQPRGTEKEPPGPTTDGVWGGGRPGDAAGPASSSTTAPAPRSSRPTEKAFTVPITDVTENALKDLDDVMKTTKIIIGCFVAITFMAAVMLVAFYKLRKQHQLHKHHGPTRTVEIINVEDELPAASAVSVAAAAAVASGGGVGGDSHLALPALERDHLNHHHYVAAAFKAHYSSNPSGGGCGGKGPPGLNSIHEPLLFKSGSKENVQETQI
UniProt P49916: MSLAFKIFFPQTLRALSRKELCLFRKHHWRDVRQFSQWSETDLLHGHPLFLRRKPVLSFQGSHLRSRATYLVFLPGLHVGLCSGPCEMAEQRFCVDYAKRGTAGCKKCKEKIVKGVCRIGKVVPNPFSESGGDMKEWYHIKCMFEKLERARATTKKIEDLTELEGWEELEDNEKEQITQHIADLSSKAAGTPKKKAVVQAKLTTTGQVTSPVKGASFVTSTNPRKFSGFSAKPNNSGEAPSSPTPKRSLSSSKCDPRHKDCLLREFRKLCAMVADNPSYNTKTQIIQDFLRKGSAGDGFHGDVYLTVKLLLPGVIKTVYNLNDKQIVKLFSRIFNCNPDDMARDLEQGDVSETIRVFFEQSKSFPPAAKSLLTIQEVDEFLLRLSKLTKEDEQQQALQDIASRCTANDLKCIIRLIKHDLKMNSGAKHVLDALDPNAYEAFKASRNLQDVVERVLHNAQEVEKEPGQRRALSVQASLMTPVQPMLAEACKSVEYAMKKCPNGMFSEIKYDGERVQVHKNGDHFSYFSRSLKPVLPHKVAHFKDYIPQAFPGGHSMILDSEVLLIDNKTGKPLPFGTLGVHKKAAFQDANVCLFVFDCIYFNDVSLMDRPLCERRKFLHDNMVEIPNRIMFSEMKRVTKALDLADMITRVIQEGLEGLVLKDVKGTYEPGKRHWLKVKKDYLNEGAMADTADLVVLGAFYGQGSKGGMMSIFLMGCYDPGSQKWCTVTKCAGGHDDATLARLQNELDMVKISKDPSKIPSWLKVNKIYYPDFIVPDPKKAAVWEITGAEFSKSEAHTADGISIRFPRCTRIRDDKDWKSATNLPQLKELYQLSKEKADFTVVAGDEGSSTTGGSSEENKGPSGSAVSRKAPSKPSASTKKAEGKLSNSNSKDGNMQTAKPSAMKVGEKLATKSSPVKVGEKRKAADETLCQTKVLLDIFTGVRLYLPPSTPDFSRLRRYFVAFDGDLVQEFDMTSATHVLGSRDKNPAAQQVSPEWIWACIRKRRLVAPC
UniProt Q15334: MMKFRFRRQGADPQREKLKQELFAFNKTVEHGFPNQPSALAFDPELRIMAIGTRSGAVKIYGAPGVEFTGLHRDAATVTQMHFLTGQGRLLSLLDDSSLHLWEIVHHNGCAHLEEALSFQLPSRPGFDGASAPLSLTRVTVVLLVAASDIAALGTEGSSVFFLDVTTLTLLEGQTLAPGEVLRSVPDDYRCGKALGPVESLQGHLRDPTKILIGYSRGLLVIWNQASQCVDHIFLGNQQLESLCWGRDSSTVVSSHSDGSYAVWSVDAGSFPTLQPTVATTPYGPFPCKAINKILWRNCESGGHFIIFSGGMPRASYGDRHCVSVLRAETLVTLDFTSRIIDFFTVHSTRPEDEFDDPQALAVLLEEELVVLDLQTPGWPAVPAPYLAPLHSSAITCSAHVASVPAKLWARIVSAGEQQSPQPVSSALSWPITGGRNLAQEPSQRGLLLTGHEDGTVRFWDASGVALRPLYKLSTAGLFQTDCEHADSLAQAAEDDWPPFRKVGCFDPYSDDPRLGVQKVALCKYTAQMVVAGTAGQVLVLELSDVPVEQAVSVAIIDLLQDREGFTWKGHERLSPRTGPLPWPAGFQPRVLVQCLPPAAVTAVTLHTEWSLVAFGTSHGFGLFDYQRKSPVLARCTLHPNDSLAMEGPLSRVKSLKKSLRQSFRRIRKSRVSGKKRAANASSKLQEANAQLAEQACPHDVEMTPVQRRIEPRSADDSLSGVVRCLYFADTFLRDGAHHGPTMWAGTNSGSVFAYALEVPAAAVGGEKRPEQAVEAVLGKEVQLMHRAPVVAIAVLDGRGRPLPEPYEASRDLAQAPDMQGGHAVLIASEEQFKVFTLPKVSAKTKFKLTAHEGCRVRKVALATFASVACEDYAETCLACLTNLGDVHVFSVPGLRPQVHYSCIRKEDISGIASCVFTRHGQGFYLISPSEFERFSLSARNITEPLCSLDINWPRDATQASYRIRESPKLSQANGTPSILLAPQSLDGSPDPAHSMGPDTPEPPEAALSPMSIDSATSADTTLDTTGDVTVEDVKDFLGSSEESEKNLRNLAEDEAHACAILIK
UniProt Q9BQK8: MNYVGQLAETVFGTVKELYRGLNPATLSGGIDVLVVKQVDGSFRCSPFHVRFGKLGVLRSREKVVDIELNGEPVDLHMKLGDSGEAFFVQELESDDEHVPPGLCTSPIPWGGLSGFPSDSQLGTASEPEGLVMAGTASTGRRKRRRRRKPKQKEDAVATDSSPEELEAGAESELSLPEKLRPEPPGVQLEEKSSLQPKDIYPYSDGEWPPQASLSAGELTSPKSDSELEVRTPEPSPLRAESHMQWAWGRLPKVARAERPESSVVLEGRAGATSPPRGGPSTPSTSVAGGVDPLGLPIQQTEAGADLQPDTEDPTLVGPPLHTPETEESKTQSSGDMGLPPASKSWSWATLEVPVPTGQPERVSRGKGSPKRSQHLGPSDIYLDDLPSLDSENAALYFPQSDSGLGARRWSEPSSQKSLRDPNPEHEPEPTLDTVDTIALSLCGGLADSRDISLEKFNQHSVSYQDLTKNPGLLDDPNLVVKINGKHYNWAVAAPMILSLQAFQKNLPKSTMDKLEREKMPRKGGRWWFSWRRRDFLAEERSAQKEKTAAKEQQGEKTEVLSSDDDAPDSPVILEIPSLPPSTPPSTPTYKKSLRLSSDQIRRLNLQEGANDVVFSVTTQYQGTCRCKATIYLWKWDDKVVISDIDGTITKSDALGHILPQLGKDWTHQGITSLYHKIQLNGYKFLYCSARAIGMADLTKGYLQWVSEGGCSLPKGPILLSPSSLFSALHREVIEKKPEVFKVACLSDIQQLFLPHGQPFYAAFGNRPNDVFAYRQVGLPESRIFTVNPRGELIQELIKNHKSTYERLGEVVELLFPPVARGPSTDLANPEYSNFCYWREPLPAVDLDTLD
UniProt P02750: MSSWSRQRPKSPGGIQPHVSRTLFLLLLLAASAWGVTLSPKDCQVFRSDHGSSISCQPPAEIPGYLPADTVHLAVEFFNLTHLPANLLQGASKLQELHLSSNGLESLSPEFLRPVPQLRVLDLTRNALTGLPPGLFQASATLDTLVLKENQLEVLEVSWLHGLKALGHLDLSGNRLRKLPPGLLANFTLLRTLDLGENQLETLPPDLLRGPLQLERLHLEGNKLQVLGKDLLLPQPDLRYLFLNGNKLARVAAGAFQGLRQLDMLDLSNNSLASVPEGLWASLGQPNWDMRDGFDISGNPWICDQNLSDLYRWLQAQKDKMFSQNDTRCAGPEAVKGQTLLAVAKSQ
UniProt Q8NG48: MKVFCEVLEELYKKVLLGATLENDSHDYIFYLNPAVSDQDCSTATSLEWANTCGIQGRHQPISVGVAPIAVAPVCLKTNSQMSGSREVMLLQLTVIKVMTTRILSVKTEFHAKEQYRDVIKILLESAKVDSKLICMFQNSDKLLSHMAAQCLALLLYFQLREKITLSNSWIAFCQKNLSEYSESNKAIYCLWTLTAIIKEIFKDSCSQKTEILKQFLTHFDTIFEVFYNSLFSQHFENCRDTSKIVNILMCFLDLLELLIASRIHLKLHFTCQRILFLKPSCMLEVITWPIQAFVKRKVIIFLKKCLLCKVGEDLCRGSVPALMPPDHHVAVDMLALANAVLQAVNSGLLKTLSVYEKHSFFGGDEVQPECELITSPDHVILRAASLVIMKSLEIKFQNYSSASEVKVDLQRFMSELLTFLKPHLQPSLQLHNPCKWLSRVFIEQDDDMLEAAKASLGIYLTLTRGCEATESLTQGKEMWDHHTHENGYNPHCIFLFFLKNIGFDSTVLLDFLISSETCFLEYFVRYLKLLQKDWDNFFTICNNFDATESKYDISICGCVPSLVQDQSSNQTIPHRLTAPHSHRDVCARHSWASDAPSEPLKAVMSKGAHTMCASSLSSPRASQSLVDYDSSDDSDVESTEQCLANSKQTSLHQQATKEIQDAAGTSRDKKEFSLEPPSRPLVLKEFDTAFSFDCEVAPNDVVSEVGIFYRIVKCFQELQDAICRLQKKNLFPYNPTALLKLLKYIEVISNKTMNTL
UniProt Q96GY3: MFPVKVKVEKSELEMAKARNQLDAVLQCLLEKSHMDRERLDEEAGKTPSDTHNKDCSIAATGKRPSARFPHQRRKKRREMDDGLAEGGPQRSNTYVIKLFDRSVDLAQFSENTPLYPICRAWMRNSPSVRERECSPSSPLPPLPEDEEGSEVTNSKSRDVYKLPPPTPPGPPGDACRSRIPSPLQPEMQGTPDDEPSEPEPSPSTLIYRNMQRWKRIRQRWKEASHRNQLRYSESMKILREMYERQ
UniProt P61968: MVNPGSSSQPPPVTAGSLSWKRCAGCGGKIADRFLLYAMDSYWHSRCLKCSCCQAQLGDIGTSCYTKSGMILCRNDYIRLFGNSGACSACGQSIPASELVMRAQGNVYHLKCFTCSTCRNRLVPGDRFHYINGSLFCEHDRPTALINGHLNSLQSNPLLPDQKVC
UniProt P80188: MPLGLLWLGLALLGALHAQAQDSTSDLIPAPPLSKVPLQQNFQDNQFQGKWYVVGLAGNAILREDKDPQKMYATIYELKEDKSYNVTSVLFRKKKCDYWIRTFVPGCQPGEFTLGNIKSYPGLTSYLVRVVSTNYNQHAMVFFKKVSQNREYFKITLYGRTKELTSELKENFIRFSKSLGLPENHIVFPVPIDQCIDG
UniProt Q15048: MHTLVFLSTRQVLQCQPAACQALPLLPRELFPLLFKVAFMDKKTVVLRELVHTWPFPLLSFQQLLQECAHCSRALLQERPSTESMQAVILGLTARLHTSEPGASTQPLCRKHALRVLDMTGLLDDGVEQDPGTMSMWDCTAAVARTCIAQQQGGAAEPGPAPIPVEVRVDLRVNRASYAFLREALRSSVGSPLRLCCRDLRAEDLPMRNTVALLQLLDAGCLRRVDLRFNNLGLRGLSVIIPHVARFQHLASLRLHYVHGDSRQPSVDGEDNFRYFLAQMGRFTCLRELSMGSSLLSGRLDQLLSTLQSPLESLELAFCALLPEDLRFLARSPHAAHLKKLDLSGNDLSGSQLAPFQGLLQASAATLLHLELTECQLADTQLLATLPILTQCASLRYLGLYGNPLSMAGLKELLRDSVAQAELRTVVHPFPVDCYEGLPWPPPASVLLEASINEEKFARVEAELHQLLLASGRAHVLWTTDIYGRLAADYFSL

How the values were obtained:
Test in all cases: log2 fold change, soluble protein after heating vs DMSO (PISA); higher = thermal stabilisation; K562 cells, 10 uM, 30 min; active = over 0.2 and 3.5 SD of the protein, either way, in both replicates (recomputed)
[1] = compound: COC1=CC=C(C=C1)CN2C=CC3=C2C=C(C=C3)C(=O)NO
Outline: (§1)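 K562 cells at 2×10^6 cells/mL were given 10 μM compound for 30 min. Aliquots then went through 3 min of heating across 48°C-58°C, were pooled, and were extracted in PBS with 0.5% NP-40 at 4°C, and the supernatant after 21,000xg for 90 min was quantified by TMTpro 16plex LC-MS/MS with channel sums equalised. Thermal stability relative to control samples, from duplicates, is given as log2 fold change.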

filanesib = compound: CON(C)C(=O)N1N=C(c2cc(F)ccc2F)S[C@@]1(CCCN)c1ccccc1 [filanesib]
Outline: as §1

zotarolimus = compound: CO[C@H]1C[C@@H]2CC[C@@H](C)[C@@](O)(O2)C(=O)C(=O)N2CCCC[C@H]2C(=O)O[C@H]([C@H](C)C[C@@H]2CC[C@H](n3cnnn3)[C@H](OC)C2)CC(=O)[C@H](C)/C=C(\C)[C@@H](O)[C@@H](OC)C(=O)[C@H](C)C[C@H](C)/C=C/C=C/C=C/1C [zotarolimus]
Outline: as §1

idasanutlin = compound: COc1cc(C(=O)O)ccc1NC(=O)[C@@H]1N[C@@H](CC(C)(C)C)[C@](C#N)(c2ccc(Cl)cc2F)[C@H]1c1cccc(Cl)c1F [idasanutlin]
Outline: as §1

alisertib = compound: COc1cc(Nc2ncc3c(n2)-c2ccc(Cl)cc2C(c2c(F)cccc2OC)=NC3)ccc1C(=O)O [alisertib]
Outline: as §1

[2] = compound: COc1cc2nc(-c3cc(F)ccc3O)nc(N[C@@H]3CNC[C@H]3C(C)(C)O)c2cc1OC
Outline: as §1

[3] = compound: COc1cccc2cc(-c3nc([C@H]4CC[C@H](C(=O)O)CC4)n4ncnc(N)c34)[nH]c12
Outline: as §1

lapatinib = compound: CS(=O)(=O)CCNCc1ccc(-c2ccc3ncnc(Nc4ccc(OCc5cccc(F)c5)c(Cl)c4)c3c2)o1 [lapatinib]
Outline: as §1

pictilisib = compound: CS(=O)(=O)N1CCN(Cc2cc3nc(-c4cccc5[nH]ncc45)nc(N4CCOCC4)c3s2)CC1 [pictilisib]
Outline: as §1

gefitinib = compound: COc1cc2ncnc(Nc3ccc(F)c(Cl)c3)c2cc1OCCCN1CCOCC1 [gefitinib]
Outline: as §1

Measured: log2 fold change

LPCAT2 (UniProt Q7L5N7)
inactive: [1] 0.03 | filanesib -0.036 | zotarolimus 0.054 | idasanutlin -0.115 | alisertib 0.097 | [2] 0.158 | [3] -0.048 | lapatinib 0.018 | pictilisib -0.043

LPIN1 isoform 7 (UniProt Q14693)
inactive: [1] -0.079 | filanesib 0.047 | zotarolimus -0.048 | idasanutlin -0.03 | alisertib 0.046 | [2] 0.017 | gefitinib -0.018 | [3] -0.041 | lapatinib -0.101 | pictilisib -0.035

LIAS (UniProt O43766)
inactive: [1] -0.131 | filanesib -0.049 | zotarolimus -0.097 | idasanutlin -0.032 | alisertib -0.041 | [2] 0.132 | gefitinib 0.014 | [3] 0.036 | lapatinib -0.051 | pictilisib 0.078

LAMTOR3 (UniProt Q9UHA4)
inactive: [1] 0.029 | filanesib -0.075 | zotarolimus -0.01 | idasanutlin -0.029 | alisertib -0.061 | [2] -0.053 | gefitinib -0.004 | [3] -0.162 | lapatinib -0.005 | pictilisib -0.218

LBR (UniProt Q14739)
inactive: [1] -0.075 | filanesib -0.065 | zotarolimus -0.008 | idasanutlin -0.196 | alisertib -0.019 | [2] 0.079 | gefitinib 0.034 | [3] 0 | lapatinib -0.081 | pictilisib -0.191

LPL (UniProt P06858)
inactive: [1] -0.08 | filanesib 0.114 | zotarolimus 0.152 | idasanutlin 0.028 | alisertib -0.042 | [2] 0.037 | [3] 0.109 | lapatinib 0.082 | pictilisib 0.013

LANCL1 (UniProt O43813)
inactive: [1] 0.04 | filanesib -0.033 | zotarolimus 0.023 | idasanutlin -0.023 | alisertib -0.025 | [2] 0.03 | gefitinib -0.031 | [3] 0.03 | lapatinib -0.05 | pictilisib 0.008

LEMD2 (UniProt Q8NC56)
inactive: [1] -0.051 | filanesib -0.211 | zotarolimus 0 | idasanutlin -0.008 | alisertib 0.044 | [2] -0.271 | gefitinib 0.061 | [3] 0.047 | lapatinib 0.133 | pictilisib -0.007

Reprinted from the entries so far (two entries):
LAMTOR3 (UniProt Q9UHA4)
inactive: [1] 0.029 | filanesib -0.075 | zotarolimus -0.01 | idasanutlin -0.029 | alisertib -0.061 | [2] -0.053 | gefitinib -0.004 | [3] -0.162 | lapatinib -0.005 | pictilisib -0.218

LBR (UniProt Q14739)
inactive: [1] -0.075 | filanesib -0.065 | zotarolimus -0.008 | idasanutlin -0.196 | alisertib -0.019 | [2] 0.079 | gefitinib 0.034 | [3] 0 | lapatinib -0.081 | pictilisib -0.191

Additional records follow:

LMAN1 (UniProt P49257)
inactive: [1] -0.06 | filanesib -0.063 | zotarolimus -0.013 | idasanutlin 0.021 | alisertib -0.034 | [2] -0.036 | gefitinib -0.013 | [3] 0.005 | lapatinib -0.021 | pictilisib -0.039

LAMP2 isoform 2 (UniProt P13473)
inactive: [1] -0.049 | zotarolimus 0.022 | idasanutlin 0.017 | alisertib -0.105 | [2] -0.027 | gefitinib -0.039 | [3] 0.09 | lapatinib -0.104 | pictilisib 0.075

LRRC4B (UniProt Q9NT99)
inactive: [1] 0.053 | filanesib 0.011 | zotarolimus -0.026 | idasanutlin 0.007 | [2] -0.141 | gefitinib -0.238 | lapatinib -0.031 | pictilisib -0.053

LIG3 (UniProt P49916)
inactive: filanesib -0.032 | zotarolimus -0.075 | idasanutlin -0.176 | alisertib 0.041 | [2] -0.123 | gefitinib -0.004 | [3] -0.016 | lapatinib -0.19 | pictilisib 0.217

LLGL1 (UniProt Q15334)
inactive: [1] 0.03 | filanesib 0.049 | zotarolimus 0.072 | [2] -0.13 | lapatinib -0.022

LRFN1 (UniProt Q9P244)
inactive: [1] -0.054 | filanesib 0.151 | zotarolimus 0.031 | [2] 0.025 | lapatinib -0.048

LEG1 (UniProt Q6P5S2)
inactive: filanesib 0.233 | zotarolimus 0.044 | idasanutlin 0.022 | alisertib 0.073 | [2] 0.124 | gefitinib 0.049 | [3] -0.26 | lapatinib -0.076 | pictilisib -0.033

LPCAT4 (UniProt Q643R3)
inactive: [1] -0.064 | zotarolimus 0.028

LIMK1 (UniProt P53667)
inactive: [1] -0.077 | filanesib -0.014 | [2] -0.048 | lapatinib 0.232

LPIN3 isoform 2 (UniProt Q9BQK8)
inactive: filanesib 0.006 | zotarolimus 0.011 | idasanutlin -0.075 | alisertib 0.022 | [2] 0.111 | gefitinib -0.029 | [3] -0.01 | lapatinib 0.022 | pictilisib 0.147

LRG1 (UniProt P02750)
inactive: [1] -0.011 | filanesib -0.199 | zotarolimus -0.043 | alisertib 0.024 | [2] -0.062 | [3] 0.042 | lapatinib 0.189 | pictilisib 0

LINS1 (UniProt Q8NG48)
inactive: [1] -0.137 | filanesib -0.183 | idasanutlin 0.078 | alisertib 0.148 | [3] -0.096

L1TD1 (UniProt Q5T7N2)
inactive: [1] -0.203 | zotarolimus -0.23 | idasanutlin -0.009 | alisertib 0 | [3] -0.21 | pictilisib 0.538

LIN37 (UniProt Q96GY3)
inactive: [1] 0.104 | filanesib -0.211 | idasanutlin 0.044 | [2] 0.018 | lapatinib -0.064 | pictilisib -0.143

LMO4 (UniProt P61968)
inactive: [1] 0.155 | zotarolimus -0.032 | idasanutlin -0.043 | alisertib 0.117 | [2] -0.212 | [3] -0.037 | lapatinib 0.1 | pictilisib -0.05

LAPTM4A (UniProt Q15012)
inactive: filanesib -0.352

LETMD1 isoform 7 (UniProt Q6P1Q0)
inactive: [1] 0 | filanesib -0.259 | idasanutlin -0.192 | alisertib -0.012 | [2] -0.269 | gefitinib -0.103 | [3] 0.052 | lapatinib 0.135 | pictilisib 0.208

LIPT2 (UniProt A6NK58)
inactive: filanesib 0.149

LAS1L (UniProt Q9Y4W2)
inactive: [1] -0.158 | filanesib 0.375 | zotarolimus 0.049 | idasanutlin 0.517 | [2] -0.174 | lapatinib -0.032 | pictilisib -0.065

LENG8 (UniProt Q96PV6)
inactive: [1] 0.205 | filanesib 0 | zotarolimus -0.061 | idasanutlin -0.151 | alisertib -0.149 | gefitinib -0.056 | [3] -0.016 | pictilisib -0.002

LCMT2 (UniProt O60294)
inactive: [1] -0.223 | filanesib -0.082 | zotarolimus 0.005 | alisertib -0.168 | [2] 0.374 | gefitinib 0.156 | [3] 0.113 | lapatinib 0.013 | pictilisib 0.107

LMBRD1 (UniProt Q9NUN5)
active: filanesib -0.39
inactive: zotarolimus 0.049 | idasanutlin 0.102 | alisertib -0.022 | [2] -0.062 | gefitinib 0 | [3] 0.059 | lapatinib -0.026 | pictilisib -0.03

LLGL2 (UniProt Q6P1M3)
inactive: [1] -0.067 | zotarolimus -0.203 | idasanutlin 0.024 | alisertib -0.089 | [2] 0.099 | gefitinib -0.059 | [3] -0.189 | lapatinib 0.041 | pictilisib 0.052

LCN2 isoform 2 (UniProt P80188)
inactive: filanesib 0.083

LRRC14 (UniProt Q15048)
inactive: [1] 0.008 | idasanutlin -0.071 | alisertib -0.09 | [2] -0.079 | gefitinib 0.065 | [3] 0.141 | lapatinib 0.184
